These results are taken from paper PMC13434269.

Chains of the proteins cited; added tags and fusions are not shown.
UniProt Q8VBV3: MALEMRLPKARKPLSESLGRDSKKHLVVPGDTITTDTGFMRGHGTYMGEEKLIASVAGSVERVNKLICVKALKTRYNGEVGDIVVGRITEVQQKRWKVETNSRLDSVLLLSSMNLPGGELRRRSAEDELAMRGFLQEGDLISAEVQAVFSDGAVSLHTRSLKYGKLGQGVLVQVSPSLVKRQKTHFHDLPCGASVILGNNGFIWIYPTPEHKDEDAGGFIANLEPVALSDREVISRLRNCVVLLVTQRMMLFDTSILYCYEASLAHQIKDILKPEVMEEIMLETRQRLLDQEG
UniProt Q9D753: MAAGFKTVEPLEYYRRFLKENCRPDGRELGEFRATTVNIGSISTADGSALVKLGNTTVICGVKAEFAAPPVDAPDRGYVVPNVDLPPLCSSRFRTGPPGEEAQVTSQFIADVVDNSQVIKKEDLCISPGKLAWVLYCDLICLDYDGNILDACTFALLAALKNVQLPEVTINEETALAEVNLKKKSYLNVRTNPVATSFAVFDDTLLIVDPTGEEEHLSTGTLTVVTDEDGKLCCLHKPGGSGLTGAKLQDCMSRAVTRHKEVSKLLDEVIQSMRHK
UniProt Q7TQK4: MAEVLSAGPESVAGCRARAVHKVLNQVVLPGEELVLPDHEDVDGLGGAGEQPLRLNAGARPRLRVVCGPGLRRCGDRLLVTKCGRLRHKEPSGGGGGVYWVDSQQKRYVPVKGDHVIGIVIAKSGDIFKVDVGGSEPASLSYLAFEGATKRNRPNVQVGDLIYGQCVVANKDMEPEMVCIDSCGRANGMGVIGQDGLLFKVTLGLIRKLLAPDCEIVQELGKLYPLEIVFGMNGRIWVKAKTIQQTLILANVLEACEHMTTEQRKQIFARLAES
UniProt Q8C0S1: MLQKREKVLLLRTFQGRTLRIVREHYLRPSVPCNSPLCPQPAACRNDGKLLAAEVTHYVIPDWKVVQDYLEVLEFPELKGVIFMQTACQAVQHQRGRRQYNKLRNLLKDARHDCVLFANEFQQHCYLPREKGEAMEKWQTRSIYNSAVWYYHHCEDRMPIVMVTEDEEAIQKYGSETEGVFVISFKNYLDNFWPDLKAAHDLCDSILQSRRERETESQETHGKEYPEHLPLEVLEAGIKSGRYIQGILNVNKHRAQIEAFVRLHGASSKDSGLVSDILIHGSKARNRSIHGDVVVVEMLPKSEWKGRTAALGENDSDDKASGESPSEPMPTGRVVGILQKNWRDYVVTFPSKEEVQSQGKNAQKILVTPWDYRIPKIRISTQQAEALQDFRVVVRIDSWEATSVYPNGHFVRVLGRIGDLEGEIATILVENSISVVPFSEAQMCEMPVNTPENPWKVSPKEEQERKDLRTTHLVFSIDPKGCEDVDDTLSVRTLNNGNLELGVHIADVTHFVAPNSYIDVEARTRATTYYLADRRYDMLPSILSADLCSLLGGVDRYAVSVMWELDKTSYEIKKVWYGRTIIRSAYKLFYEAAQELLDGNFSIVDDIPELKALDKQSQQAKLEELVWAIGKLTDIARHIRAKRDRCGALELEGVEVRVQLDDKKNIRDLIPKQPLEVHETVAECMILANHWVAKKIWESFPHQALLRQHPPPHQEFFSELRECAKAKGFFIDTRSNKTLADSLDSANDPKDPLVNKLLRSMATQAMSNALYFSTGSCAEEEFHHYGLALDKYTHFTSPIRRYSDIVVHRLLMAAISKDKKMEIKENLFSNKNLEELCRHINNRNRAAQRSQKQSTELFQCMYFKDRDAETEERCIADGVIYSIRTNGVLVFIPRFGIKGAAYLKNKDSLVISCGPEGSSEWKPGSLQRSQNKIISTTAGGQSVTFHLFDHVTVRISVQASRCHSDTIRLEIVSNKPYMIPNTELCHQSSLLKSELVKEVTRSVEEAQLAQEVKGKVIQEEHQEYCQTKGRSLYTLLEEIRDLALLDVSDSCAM
UniProt Q921I9: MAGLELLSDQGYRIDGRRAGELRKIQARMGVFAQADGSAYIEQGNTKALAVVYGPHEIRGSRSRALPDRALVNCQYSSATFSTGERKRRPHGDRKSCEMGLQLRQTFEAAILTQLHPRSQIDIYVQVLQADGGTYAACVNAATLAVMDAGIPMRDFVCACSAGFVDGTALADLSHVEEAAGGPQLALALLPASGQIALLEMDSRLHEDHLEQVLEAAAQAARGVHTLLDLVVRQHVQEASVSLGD
UniProt Q8BTW3: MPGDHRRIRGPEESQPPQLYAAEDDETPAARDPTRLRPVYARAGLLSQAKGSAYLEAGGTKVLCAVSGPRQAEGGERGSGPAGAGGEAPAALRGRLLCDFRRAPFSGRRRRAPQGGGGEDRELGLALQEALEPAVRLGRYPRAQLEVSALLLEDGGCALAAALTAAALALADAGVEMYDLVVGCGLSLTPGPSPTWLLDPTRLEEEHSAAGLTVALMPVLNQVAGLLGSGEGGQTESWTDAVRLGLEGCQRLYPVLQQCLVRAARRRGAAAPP
UniProt Q9D0M0: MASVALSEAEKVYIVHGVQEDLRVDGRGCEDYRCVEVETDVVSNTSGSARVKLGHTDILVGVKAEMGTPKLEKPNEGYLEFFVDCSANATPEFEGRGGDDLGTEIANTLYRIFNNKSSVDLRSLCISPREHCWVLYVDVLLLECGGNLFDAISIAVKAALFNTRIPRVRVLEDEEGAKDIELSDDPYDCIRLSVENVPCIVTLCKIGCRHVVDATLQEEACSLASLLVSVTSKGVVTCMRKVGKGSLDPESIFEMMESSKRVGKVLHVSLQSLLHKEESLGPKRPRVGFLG
UniProt Q9JHI7: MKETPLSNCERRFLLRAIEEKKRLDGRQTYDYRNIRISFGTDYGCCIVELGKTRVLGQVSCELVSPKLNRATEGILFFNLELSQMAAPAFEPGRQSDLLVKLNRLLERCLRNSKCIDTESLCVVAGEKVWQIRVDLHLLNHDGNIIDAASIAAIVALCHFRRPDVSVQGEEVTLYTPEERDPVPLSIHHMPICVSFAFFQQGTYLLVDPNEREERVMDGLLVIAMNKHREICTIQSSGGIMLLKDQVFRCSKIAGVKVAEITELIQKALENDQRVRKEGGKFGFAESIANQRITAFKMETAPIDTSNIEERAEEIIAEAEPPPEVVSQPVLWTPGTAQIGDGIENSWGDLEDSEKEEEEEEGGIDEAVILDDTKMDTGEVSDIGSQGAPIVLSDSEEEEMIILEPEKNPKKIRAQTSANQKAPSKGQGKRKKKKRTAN

Experiment [1] addresses Exosc2-mScarlet3-SPOT (mouse) (UniProt Q8VBV3). The experiment is described as follows: co-IP; SPOT-Trap Magnetic Agarose on lysate of Tir1 (control), AID-Exosc3 and Exosc6-AID mESCs expressing Exosc2-mScarlet3-SPOT, with acute depletion by IAA, Western blot of input and bead-bound proteins. On the technique in general: A western blot detects proteins with antibodies after separation by electrophoresis.

In experiment [2] the target is Exosc2-mCherry-V5 (mouse) (UniProt Q8VBV3). Nature of the experiment: co-IP; V5-Trap Magnetic Agarose on 1 mg lysate of mESCs expressing Exosc2-mCherry-V5, 4 °C 3-4 h, IP lysis buffer (50 mM Tris-HCl pH 7.5, 150 mM NaCl, 1% Igepal CA-630, 0.5 mM EDTA), Western blot of bead-bound proteins; also after iCas9 depletion of Exosc6, Exosc8, Exosc9, Exosc5, Exosc1 or control Olfr10 for 48 or 72 h.

Experiment [3] has the same target. The description is as above. This is another data set of the same source.

Where two headings read alike, the source gives them in different places. No constants are given. Whether binding was seen depends on the method and setting. In cells and extracts the contact can be indirect. Some binding calls cover weakened binding; strength is not graded here.

Regarding Exosc8 (from UniProt Q9D753 1-276), the binding entry in experiment [1] and in experiment [2] was “binds” throughout.

Regarding Exosc3 (from UniProt Q7TQK4 1-274), in experiment [2], the binding result was “binds”. Regarding “Dis3L (from UniProt Q8C0S1 1-1053) (enzyme)”, in experiment [2], the binding result is reported as “binds”. In the case of Exosc4 (from UniProt Q921I9 1-245), the binding entry in experiment [1] and in experiment [2] was “binds” each time. As for Exosc6 (from UniProt Q8BTW3 1-273), the binding result in experiment [1] and in experiment [2] was “binds” in each case. For Exosc7 (from UniProt Q9D0M0 1-291), the binding entry in experiment [1] and in experiment [2] was “binds” in each case. For the molecule Exosc9 (from UniProt Q9JHI7 1-438), the binding result in experiment [1] and in experiment [2] was “binds” throughout. With Exosc1 (from UniProt Q9DAA6-1 1-195), the binding entry in experiment [2] is “binds”.

B1: Exosc10 (enzyme, UniProt P56960 1-887)
chain: MAPPSPREHQSAPATSATKPDAEMVLPGFPDADSFVKFALGSVVAVTKASGGLPQFGDEYDFYRSFPAFQAFCETQGDRLLQCMSRVMQYHGCRSNIKDRSKVTELEDKFDLLVDTNDVILERVGMLLDEASGVNKHQQPVLPAGLQVPKTIVSSWNRKAGEYGKKAKSETFRLLHAKNIVRPQLRFREKIDNSNTPFLPKIFVKPNARKPLPLALSKERRERPQDRPEDLDVPPALADFIHQQRTQQVEQDMFAHPYQYELDHFTPPQSVLQRPKPQLYRAVGETPCHLVSSLDELVELNEKLLGCQEFAVDLEHHSYRSFLGLTCLMQISTRTEDFIVDTLELRSDMYILNESLTDPAIVKVFHGADSDIEWLQKDFGLYVVNMFDTHQAARLLNLARHSLDHLLRLYCGVESNKQYQLADWRIRPLPEEMLSYARDDTHYLLYIYDRMRLELWERGNHQPVQLQVVWQRSRDICLKKFVKPIFTDESYLELYRKQKKHLNSQQLTAFQLLFAWRDKTARREDESYGYVLPNHMMLKIAEELPKEPQGIIACCNPVPPLVRQQINEMHLLIQQAREMPLLKSENAAGVRKSGPLPSAERLENDLFGPHDCSHAPPDNYQNTSTDGTLPLQKQPSLFTEGKEETSVDAGCLLATAVITLFSEPNTEEGGKTPLTVAQKKAQNIMQSFENPFRMFLPSLEHKAHISQAAKFDPSSKIYEISNRWKLASQVQVQKEPKEATKKKVAEQTAAREEAKEEAAAGVLEQAIPVRQQAALENATKKRERATSDLRTIEQKQEKKRLKSSKKAKDPDPPGKDFSPYDYSQSDFRAFAGDSKSKPSSQFDPNKLAPSGKKGVGAKKCKQSVGNKSMSFAVGKSDRGFRHNWPKR
Consider B1, for which the binding entry in experiment [3] is listed as “binds”.

B2: Dis3 (enzyme, UniProt Q9CSH3 1-958)
chain: MLRSKTFLKKTRAGGVVKIVREHYLRDDIGCGAPACSACGGAHAGPALELQPRDQASSLCPWPHYLLPDTNVLLHQIDVLEHPAIRNVIVLQTVMQEVRNRSAPIYKRIRDVTNNQEKHFYTFTNEHHKETYIEQEQGENANDRNDRAIRVAAKWYNEHLKRVAADSQLQVILITNDRKNKEKAVQEGIPAFTCEEYVKSLTANPELIDRLAYLSDEMNEIESGKIIFSEHLPLSKLQQGIKSGSYLQGTFRASRENYLEATVWIHGDKEEEKEILIQGIKHLNRAVHEDIVAVELLPRSQWVAPSSVVLDDEGQNEDDVEKDEERELLLKTAVSEKMLRPTGRVVGIIKRNWRPYCGMLSKSDIKESRRHLFTPADKRIPRIRIETRQASALEGRRIIVAIDGWPRNSRYPNGHFVKNLGDVGEKETETEVLLLEHDVPHQPFSQAVLSFLPRMPWSITEEDMKNREDLRHLCVCSVDPPGCTDIDDALHCRELSNGNLEVGVHIADVSHFIRPGNALDQESARRGTTVYLCEKRIDMVPELLSSNLCSLRSNVDRLAFSCIWEMNHNAEILKTRFTKSVINSKASLTYAEAQMRIDSAAMNDDITTSLRGLNQLAKILKKGRIEKGALTLSSPEIRFHMDSETHDPIDLQTKELRETNSMVEEFMLLANISVAKKIHEEFSEHALLRKHPAPPPSNYDILVKAAKSKNLQIKTDTAKSLADSLDRAESPDFPYLNTLLRILATRCMMQAVYFCSGMDNDFHHYGLASPIYTHFTSPIRRYADIIVHRLLAVAIGADCTYPELTDKHKLSDICKNLNFRHKMAQYAQRASVAFHTQLFFKSKGIVSEEAYILFVRKNAIVVLIPKYGLEGTVFFEEKDKPKPRLAYDDEIPSLRIEGTVFHVFDKVKVKITLDSSNLQHQKIRMALVEPQIPGINIPPNVADKALTAPGGKKRKLEK
As for B2, the binding result in experiment [3] is “binds weakly”.
